Experimental data: patent publication US20250019357A1, “[…] MORPHIC FORMS AND MIXTURES FOR THE TREATMENT OF MENTAL DISORDERS OR MENTAL ENHANCEMENT” (TACTOGEN INC, priority 2021, published 2025)
“Also recorded” adds a separate entry of the source. At least one structure is not confirmed: it was looked up by name or label, or the drawing left a doubt.

How the values were obtained:
DAT = DAT (Rattus norvegicus (Rat), UniProt P23977); test: In vitro rat synaptosome dopamine release assay (Examples 9, 58); format: biochemical; details: rat synaptosomes
Description: (§1) FIG. 8C is a graph showing results from in vitro rat synaptosome dopamine and norepinephrine release assays. […] Previously presented serotonin results are included for comparison. […] Details and procedural information for this assay are described in Example 9. The x-axis is the log [dose] concentration measured in molar and the y-axis is the [^3H]-labeled 5-HT release measured in percent.
as §1, with “178” for “8C”, “58.” for “9.”, “x-axis” for “x-axis is”, “Molar units” for “molar”, “percent of maximum produced by the comparison releaser.” for “percent.”

[1] = tested on: norepinephrine transporter (NET); test: Rat synaptosome NET release assay ([3H]MPP+); details: rat synaptosomes
NET = test: In vitro rat synaptosome norepinephrine release assay (Examples 9, 58); format: biochemical; details: rat synaptosomes
Description: as §1
as §1, with “178” for “8C”, “58.” for “9.”, “x-axis” for “x-axis is”, “Molar units” for “molar”, “percent of maximum produced by the comparison releaser.” for “percent.”

SERT [2] = target: T1, SERT (Rattus norvegicus (Rat), UniProt P31652); test: In vitro rat synaptosome serotonin release (efflux) assay (Examples 9, 58); format: biochemical; details: rat synaptosomes
Description: (§2) FIG. 7B is a graph showing results from an in vitro rat synaptosome serotonin release assay. […] Details and procedural information for this assay are described in Example 9. The x-axis is the log [dose] concentration measured in molar and the y-axis is the [^3H]-labeled 5-HT release measured in percent.
as §2, with “177” for “7B”, “58.” for “9.”, “x-axis” for “x-axis is”

[3] = target: Human Trace Amine Associated Receptor (hTAAR1) (Homo sapiens (Human), UniProt Q96RJ0); test: hTAAR1 agonist assay (DiscoverX cAMP Hunter); format: cell-based; details: seven concentrations between 0.05692 and 60 μM
SERT [4] = target: T1, SERT; test: In vitro rat synaptosome serotonin uptake inhibition assay (Examples 9, 58); format: biochemical; details: rat synaptosomes
Description: as §2, with “FIG. 7A” for “FIG. 7B”, “serotonin uptake inhibition” for “serotonin release”, “5-HT reuptake” for “5-HT release”
FIG. 176 is a graph showing results from an in vitro rat synaptosome serotonin uptake inhibition assay. […] Details and procedural information for this assay are described in Example 58. The x-axis the log [dose] concentration is measured in Molar units and the y-axis is the [^3H]-labeled 5-HT reuptake measured in percent of maximum produced by the comparison releaser.

neuritogenesis = details: cited from earlier work
5-HT1B = 5-HT1B (Homo sapiens (Human), UniProt P28222); details: cited from earlier work
5-HT1BR = 5-HT1BR (Homo sapiens (Human), UniProt P28222); details: Ray. 2010. PloS one; cited from earlier work

| Structure (SMILES) | dopamine release / dopamine uptake (DAT) | norepinephrine Emax [1] | norepinephrine release (NET) | [3H]-labeled 5-HT release (SERT [2]) | hTAAR1 agonist activity [3] | [3H]-labeled 5-HT reuptake (serotonin uptake inhibition) (SERT [4]) | EC50 (neuritogenesis; read-out: EC50 for promoting neuritogenesis) | Emax for promoting neuritogenesis (neuritogenesis; relative to ketamine) | binding to 5-HT1B (5-HT1B) | binding to the 5-HT1BR (5-HT1BR) |
| --- | --- | --- | --- | --- | --- | --- | --- | --- | --- | --- |
| CC[C@@H](Cc1ccc2ccoc2c1)NC [Pattern S-6-MBPB, S-6-MBPB] | partial releaser of both dopamine and norepinephrine | 81% | partially increases extracellular norepinephrine by stimulating release; also recorded: partial releaser of both dopamine and norepinephrine; also recorded: rapidly increases extracellular norepinephrine by stimulating release | rapidly increases extracellular serotonin by stimulating release | no agonist activity | rapidly increases extracellular serotonin by inhibiting reuptake | – | – | – | – |
| CNC(C)Cc1ccc2c(c1)OCO2 (stereo not shown) [MDMA] | – | – | – | – | – | – | 7.41 nM | approximately twice that of ketamine | does not bind directly to the 5-HT1B | does not bind |
| CC[C@H](Cc1ccc2ccoc2c1)NC [Pattern R-6-MBPB, R-6-MBPB] | dopamine uptake inhibitors; also recorded: reuptake inhibitors of dopamine | 66% | partially increases extracellular norepinephrine by stimulating release; also recorded: partial releasers of norepinephrine; also recorded: rapidly increases extracellular norepinephrine by stimulating release | rapidly increases extracellular serotonin by stimulating release | no agonist activity | rapidly increases extracellular serotonin by inhibiting reuptake | – | – | – | – |
